Test results as given in the supplement of paper PMC6078165.
Values are relative to the signal before dosing, not to a vehicle control; the signal also falls without drug.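 The tumor cells are basal-like or mesenchymal-like triple-negative breast cancer lines cultured without fibroblasts. Reduced red signal indicates lost mitochondrial integrity, serving as a proxy for apoptotic death.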

Key:
Experiment in all cases: relative JC-1 red fluorescence (viability) vs pre-drug, monoculture (fraction); higher = more viable cancer cells
Details in all cases: coculture fibroblast: none (monoculture)
[1] = tested on: MDAMB436
Protocol: (§1)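 JC-1 labelled TNBC cells grown in monoculture (density kept equal with unlabelled cancer cells) in 384-well plates in FluoroBrite medium, treated with one of 42 anticancer drugs at 0.1, 1, 10 or 100 uM. JC-1 red fluorescence (mitochondrial integrity, surrogate of apoptotic death) was read by plate reader every 8 h for 72 h. Values are normalised to each well's pre-drug value, with background from alamethicin. The stock of one drug was tenfold lower, so its dose labels may be too high. Monoculture values are repeated alongside each fibroblast plate and are averaged here.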

[2] = tested on: BT20
Protocol: as §1

[3] = tested on: MDAMB468
Protocol: as §1

[4] = tested on: MDAMB231
Protocol: as §1

O=c1[nH]cc(F)c(=O)[nH]1 [Fluorouracil]
relative JC-1 red fluorescence
Details	8 h	16 h	24 h	32 h	40 h	48 h	56 h	64 h	72 h
[1], 0.1 µM	0.861	0.804	0.78	0.741	0.72	0.722	0.735	0.74	0.743
[1], 1 µM	0.84192	0.7175	0.7232	0.671	0.661	0.66	0.652	0.654	0.66
[1], 10 µM	0.8864	0.818	0.825	0.782	0.798	0.797	0.806	0.81	0.811
[1], 100 µM	0.873	0.7326	0.7518	0.6939	0.6723	0.65623	0.6455	0.64751	0.6522
[2], 0.1 µM	0.925	0.869	0.767	0.707	0.678	0.655	0.638	0.616	0.608
[2], 1 µM	0.942	0.907	0.865	0.806	0.755	0.741	0.712	0.69	0.687
[2], 10 µM	0.935	0.8542	0.772	0.717	0.69	0.676	0.663	0.651	0.644
[2], 100 µM	0.918	0.829	0.778	0.7	0.666	0.639	0.61	0.587	0.573
[3], 0.1 µM	0.8882	0.828	0.76	0.678	0.618	0.582	0.552	0.519	0.496
[3], 1 µM	0.896	0.834	0.806	0.702	0.668	0.656	0.626	0.604	0.595
[3], 10 µM	0.895	0.826	0.764	0.699	0.659	0.648	0.614	0.594	0.584
[3], 100 µM	0.88204	0.8052	0.797	0.741	0.722	0.709	0.702	0.686	0.677
[4], 0.1 µM	0.7455	0.727	0.585	0.59921	0.566	0.541	0.497	0.512	0.506
[4], 1 µM	0.7368	0.7082	0.6159	0.582	0.527	0.512	0.479	0.4923	0.488
[4], 10 µM	0.7486	0.711	0.655	0.644	0.618	0.606	0.5736	0.5922	0.5907
[4], 100 µM	0.748	0.703	0.734	0.69	0.664	0.66	0.629	0.647	0.652

CS(=O)(=O)CCNCc1ccc(-c2ccc3ncnc(Nc4ccc(OCc5cccc(F)c5)c(Cl)c4)c3c2)o1 [Lapatinib]
relative JC-1 red fluorescence
Details	8 h	16 h	24 h	32 h	40 h	48 h	56 h	64 h	72 h
[1], 0.1 µM	0.8719	0.8139	0.7868	0.723	0.703	0.698	0.691	0.686	0.68
[1], 1 µM	0.8905	0.81	0.781	0.715	0.693	0.671	0.646	0.633	0.623
[1], 10 µM	0.855	0.766	0.756	0.74	0.762	0.772	0.775	0.79	0.793
[1], 100 µM	0.88809	0.757	0.776	0.701	0.683	0.665	0.65	0.641	0.628
[2], 0.1 µM	0.93	0.882	0.784	0.7206	0.6864	0.6549	0.6263	0.5942	0.584
[2], 1 µM	0.923	0.8346	0.775	0.715	0.682	0.66	0.627	0.6028	0.5847
[2], 10 µM	0.9323	0.827	0.724	0.668	0.637	0.612	0.581	0.549	0.527
[2], 100 µM	0.9378	0.891	0.8334	0.758	0.727	0.699	0.665	0.643	0.62
[3], 0.1 µM	0.8991	0.8531	0.808	0.7328	0.6867	0.65496	0.6257	0.604	0.583
[3], 1 µM	0.948	0.878	0.897	0.856	0.83	0.8181	0.803	0.7847	0.764
[3], 10 µM	0.849	0.752	0.721	0.724	0.732	0.799	0.782	0.733	0.705
[3], 100 µM	0.943	0.906	0.887	0.811	0.769	0.76	0.726	0.702	0.695
[4], 0.1 µM	0.756	0.791	0.569	0.658	0.635	0.601	0.564	0.557	0.551
[4], 1 µM	0.776	0.7483	0.6932	0.69	0.661	0.646	0.624	0.617	0.606
[4], 10 µM	0.815	0.87	0.64	0.851	0.857	0.856	0.847	0.837	0.824
[4], 100 µM	0.772	0.754	0.732	0.72	0.6973	0.682	0.645	0.665	0.64
